Assay results published in PubChem BioAssay AID504444 (National Center for Advancing Translational Sciences (NCATS), 2011).
Screen size: about 360,000 compounds; about 7,500 (2.1%) were called active. This list was built around the results that the source calls inconclusive (neither active nor inactive); the mix of calls is not that of the screen. The call rests on the fitted dose curve; in most records, active means well fitted inhibition curve with a large enough effect; inconclusive means small, poorly fitted or top-dose-only effect, or effect the other way; inactive means flat fitted curve, though single readings scatter. Potencies beside an inconclusive call are fits to weak or partial responses and may not hold up.

assay: Nrf2 qHTS screen for inhibitors; settings: A549 ARE-Fluc reporter, luciferase luminescence, 18-24 h; series mostly up to 46 µM; further: nearly all actives have a fitted effect of over 60% in size
Method in brief: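 In this cell-based qHTS, ARE-driven firefly luciferase in A549 cells reports Nrf2 activity; the luminescent signal after BugLite lysis is the measured value, with a prior CellTiter-Fluor read for cell health.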
Potency means the concentration at half of the fitted maximal effect.

| SMILES | Potency |
| --- | --- |
| Cn1c(C(=O)NC2CCCC2)cc2c(=O)n(C)c3ccccc3c21 | inconclusive: 20.6 µM [falling, single point] |
| CCOc1ccc(Oc2ccccc2NC(=O)CSCC(=O)Nc2cc(C)on2)cc1 | active: 9.2 µM |
| CCOc1ccc(CCNC(=O)c2cc3c(=O)n(CC)c4ccccc4c3s2)cc1OCC | inactive |
| Cc1nn(-c2ccccc2)c(Cl)c1/C=N/NC(=O)c1ccccc1F | inconclusive: 9.2 µM [activator, partial curve] |
| CCc1cccc(NC(=O)CSc2nncn3c2cc2sccc23)c1 | inconclusive: 18.4 µM [falling, single point] |
| O=C(Nc1ccc(O)c(-c2nc3ccccc3s2)c1)c1cccs1 | inactive |
| NC(=O)c1ccc(-c2noc(-c3ccccc3F)n2)cc1 | inconclusive: 2.06 µM [activator, full curve] |
| COc1ccc(NS(=O)(=O)c2cccc(C(=O)OCC(=O)N3CCN(c4ccc(OC)cc4)CC3)c2)cc1 | active: 20.6 µM |
| Cc1cc(C(=O)c2ccc(Cl)cc2)c(NC(=O)CCl)s1 | inactive |
| Cc1onc(-c2ccccc2)c1C(=O)Nc1cccc(S(=O)(=O)N2CCCCC2)c1 | inconclusive: 29.1 µM [falling, single point] |
| CCS(=O)(=O)N1CCc2cc(C(=O)N3CCN(c4ccccc4OC)CC3)ccc21 | inconclusive: 20.6 µM [falling, partial curve] |
| COc1ccc2cc(C#N)c(N3CCN(Cc4nnnn4CCC(C)C)CC3)nc2c1 | inconclusive: 1.64 µM [falling, full curve, poor fit] |
| CC(C)(C)OC(=O)N1CCc2nc(N3CCN(c4ncccn4)CC3)ncc2C1 | inactive |
| O=C(NNC(=O)c1ccc(F)c(S(=O)(=O)N2CCOCC2)c1)c1ccc([N+](=O)[O-])cc1 | inconclusive: 0.82 µM [falling, full curve, poor fit] |
| Cc1ccc(C)c(CNC(=O)Nc2ccccc2)c1 | inconclusive: 5.8 µM [activator, full curve, poor fit] |
| Cc1ccc(-n2nc3c(=O)n(CC(=O)NCCc4ccccc4C)nc(C)c3c2C)cc1 | inconclusive: 32.6 µM [falling, single point] |
| COC(=O)CSc1nnc(-c2ccc(NS(=O)(=O)c3ccccc3)cc2)o1 | inconclusive: 29.1 µM [activator, partial curve, poor fit] |
| Oc1[nH]c2c(Cl)cc(Cl)cc2c1N=NC(=S)NCC1CCCO1 (configuration not stated) | inconclusive: 20.6 µM [falling, single point] |
| Cc1ccc(C)c(NC(=S)NC(NC(=O)Cc2cccc3ccccc23)C(Cl)(Cl)Cl)c1 (configuration not stated) | active: 20.6 µM |
| O=C(N/N=C/c1cccnc1)c1cccc(S(=O)(=O)N2CCCC2)c1 | inconclusive: 2.31 µM [activator, full curve, poor fit] |
| CCN(CC(=O)N1CCOCC1)S(=O)(=O)c1cc(Cl)ccc1Cl | inactive |
| COc1cc(CC(=O)Nc2cccc(SC)c2)cc(OC)c1OC | inconclusive: 18.4 µM [falling, single point] |
| Cc1c(C(=O)NCc2ccccn2)oc2ccc(S(=O)(=O)N3CCC4(CC3)OCCO4)cc12 | inactive |

Among those listed so far, these contain an aryl methoxy group:

| SMILES | Potency |
| --- | --- |
| COc1ccc(NS(=O)(=O)c2cccc(C(=O)OCC(=O)N3CCN(c4ccc(OC)cc4)CC3)c2)cc1 | active: 20.6 µM |
| CCS(=O)(=O)N1CCc2cc(C(=O)N3CCN(c4ccccc4OC)CC3)ccc21 | inconclusive: 20.6 µM [falling, partial curve] |
| COc1ccc2cc(C#N)c(N3CCN(Cc4nnnn4CCC(C)C)CC3)nc2c1 | inconclusive: 1.64 µM [falling, full curve, poor fit] |
| COc1cc(CC(=O)Nc2cccc(SC)c2)cc(OC)c1OC | inconclusive: 18.4 µM [falling, single point] |

3 compounds out of the list, sorted by SMILES length, smallest number first.

| SMILES | Potency |
| --- | --- |
| Cc1ccc(C)c(CNC(=O)Nc2ccccc2)c1 | inconclusive: 5.8 µM [activator, full curve, poor fit] |
| Cc1cc(C(=O)c2ccc(Cl)cc2)c(NC(=O)CCl)s1 | inactive |
| COc1ccc2cc(C#N)c(N3CCN(Cc4nnnn4CCC(C)C)CC3)nc2c1 | inconclusive: 1.64 µM [falling, full curve, poor fit] |

The list continues.

| SMILES | Potency |
| --- | --- |
| COc1cccc(COCC(O)Cn2cnc3cc(C)c(C)cc32)c1 (configuration not stated) | inconclusive: 23.1 µM [falling, single point] |
| CCOC(=O)c1ccccc1NC(=O)[C@@H]1CCCN1C(=O)OC(C)(C)C | inactive |
| Cc1ccc(-c2onc(C)c2C)cc1S(=O)(=O)N1CCOc2ccc(Cl)cc21 | inconclusive: 29.1 µM [falling, single point] |
| NS(=O)(=O)c1ccc(N=Nc2c(O)ccc3ccccc23)cc1 | inconclusive: 10.3 µM [falling, partial curve] |
| C/C(=C\C(=O)c1ccc(Br)cc1)Nc1ccc(Cl)cc1 | inconclusive: 5.17 µM [activator, full curve] |
| C[C@H]1[C@H](C)CC[C@]2(C(=O)O)CC[C@]3(C)C(=CC[C@@H]4[C@@]5(C)C[C@@H](O)[C@H](O)C(C)(C)[C@@H]5CC[C@]43C)[C@H]12 | inconclusive: 16.4 µM [falling, partial curve, poor fit] |
| COC(=O)CSc1nnc(NC(=O)c2ccc3c(c2)OCO3)s1 | inconclusive: 4.11 µM [falling, full curve] |
| O=C(NNC(=O)c1cccs1)c1ccc2ccccc2c1 | inconclusive: 7.31 µM [activator, partial curve, poor fit] |
| CC(=O)N1CCc2c(sc3c2c(=O)n(Cc2ccccc2)c(=O)n3Cc2ccccc2F)C1 | active: 16.4 µM |
| O=C1CN(C(=O)/C=C/c2cccc(Cl)c2)c2ccccc2N1 | inconclusive: 13 µM [falling, partial curve, poor fit] |
| COc1cc(/C=C(\C#N)c2nc3ccccc3[nH]2)ccc1OCc1ccccc1F | inconclusive: 9.2 µM [falling, partial curve, poor fit] |
| Cc1ccc(-c2cc3nc(-c4ccccc4)cc(N4CCOCC4)n3n2)cc1 | inactive |
| CC1CCC(CN2C(Nc3ccccc3)=NC[C@@H]2Cc2ccccc2)CC1 (some centres not stated) | inactive |
| O=C(CCC1CCN(C(=O)c2cc(C(F)(F)F)ccc2Cl)CC1)NC1CC1 | inactive |
| COc1ccc(NS(=O)(=O)c2ccc3oc(SC(C)C(N)=O)nc3c2)cc1 (configuration not stated) | active: 23.1 µM |
| CCC(=O)N1c2ccc(S(=O)(=O)CCC(=O)N3CCN(c4cc(C)ccc4C)CC3)cc2CC1C (configuration not stated) | inconclusive: 29.1 µM [falling, single point] |
| CCn1cc(/C=C(\NC(=O)c2ccc(OC)c(OC)c2)C(=O)NCCCN2CCOCC2)c2ccccc21 | inconclusive: 32.6 µM [activator, partial curve, poor fit] |
| Cc1ccc(Oc2nc3ccccc3n3c(C)nnc23)cc1 | inconclusive: 3.66 µM [falling, single point] |
| O=C(Cc1ccc(S(=O)(=O)N2CCOCC2)s1)Nc1ccc2c(c1)CCC2 | inconclusive: 32.6 µM [falling, single point] |
| C=CCn1c(SCC2=C(C(=O)OCC)C(C)NC(=O)N2)nnc1C1CCCCC1 (configuration not stated) | inconclusive: 29.1 µM [activator, single point] |
| CCn1c(=O)c(=O)n(CC)c2cc(S(=O)(=O)Nc3cccc(OC)c3)ccc21 | inconclusive: 32.6 µM [falling, partial curve, poor fit] |
| O=C(CCN1C(=O)S/C(=C\c2cccs2)C1=O)Nc1nccs1 | inconclusive: 32.6 µM [falling, single point] |
| O=C1NCCN(CC2CCN(CC3CCCC3)CC2)C1=O | inactive |

| SMILES | Potency |
| --- | --- |
| O=C(NC(O)C(=O)c1ccccc1)c1ccccn1 (configuration not stated) | inactive |
| Cc1cc(C(=O)CSc2ccc3c(c2)OCCO3)c(C)n1C1CC1 | inconclusive: 1.3 µM [activator, full curve] |
| O=C(NN1C(=O)C2C(c3ccccc3)C=CC(c3ccccc3)C2C1=O)c1cccc(Br)c1 (configuration not stated) | inactive |
| O=S(=O)(c1cccs1)N1CN(C2CCCC2)c2nc3ccccc3nc21 | inconclusive: 2.91 µM [falling, partial curve, poor fit] |
| CCOc1ccc(NC(=O)CN(C)C(=O)c2cn(-c3ccc(C)cc3)nc2-c2cccc(OC)c2)cc1OCC | inactive |
| COc1ccc2c(c1)CCCC21NC(=O)N(CC(=O)NC(=O)NCc2ccccc2)C1=O (configuration not stated) | inconclusive: 20.6 µM [falling, partial curve, poor fit] |
| Cc1ccccc1NC(=O)CSCC(=O)Nc1ccccc1C | inconclusive: 2.31 µM [falling, single point] |
| Cc1cccc(NC(=O)CC2SC(=O)N(c3ccccc3)C2=O)c1 (configuration not stated) | inactive |
| CCOC(=O)N1CCC(N2C(=O)c3ccccc3C2Nc2ccc3c(c2)OCCO3)CC1 (configuration not stated) | inconclusive: 20.6 µM [activator, partial curve, poor fit] |
| COc1ccc(C(CNC(=O)c2ccc(F)cc2)N2CCCC2)cc1 (configuration not stated) | inactive |
| CCc1ccc(OCC(=O)c2c(O)c3ccccc3oc2=O)cc1 | inactive |
| CCc1nc2oc3ccc(C)cc3c(=O)c2cc1C(=O)OC | inconclusive: 0.92 µM [activator, full curve] |
| O=C(O)CCCN1C(=O)/C(=C\c2ccco2)SC1=S | inconclusive: 14.6 µM [falling, partial curve, poor fit] |
| COc1ccc(NC(=O)CC2Oc3ccccc3NC2=O)c(OC)c1 (configuration not stated) | inconclusive: 18.4 µM [falling, single point] |
| COc1ccc(OC)c(/C(O)=C/C(=O)C(=O)Nc2cc(C)cc(C)c2)c1 | inconclusive: 2.91 µM [falling, partial curve, poor fit] |
| Cn1nccc1C(=O)NC1CCCc2c1cnn2-c1ccc(C(C)(C)C)cc1 (configuration not stated) | active: 0.731 µM |
| CCCCc1sc(-c2c(C#N)c(N)nc3c2CCCCC3)cc1[N+](=O)[O-] | inconclusive: 29.1 µM [falling, single point] |
| COc1ccc(N=Cc2sc(O)c3ccccc23)cc1 | inconclusive: 2.31 µM [activator, full curve] |
| CC1CN(S(=O)(=O)c2cccc(C(=O)Nc3ccccc3N3CCCC3)c2)CC(C)O1 (configuration not stated) | active: 23.1 µM |
| COc1ccc(N2CCN(c3cnc4ccccc4n3)CC2)cc1 | inconclusive: 10.3 µM [activator, partial curve] |
| O=C(COc1ccc(S(=O)(=O)NC2CCCCC2)cc1)NCCC1=CCCCC1 | inconclusive: 25.9 µM [falling, partial curve, poor fit] |
